# Measurements taken from PubChem BioAssay AID504834 (National Center for Advancing Translational Sciences (NCATS), 2011).
# The campaign covered roughly 320,000 compounds. About 22,000 (6.9%) were called active. Inconclusive means that the source gave no clear call. Such entries were picked first, then a sample of the others. Calls come from the whole dose curve; as a rule, active = well fitted inhibition curve with a large enough effect; inconclusive = small, poorly fitted or top-dose-only effect, or another doubt; inactive = no such curve, though single readings can be large or run the other way. A potency beside an inconclusive call is a rough fit, not a confirmed value.
# Test: Primary qHTS for delayed death inhibitors of the malarial parasite plastid, 96 hour incubation
# Details: P. falciparum luciferase reporter growth; series mostly up to 28.7 µM; activity change, negative = inhibition: at the top concentration
# Procedure, shortened: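 Compounds incubated with erythrocytes infected by luciferase-expressing P. falciparum (2% hematocrit, 0.05% parasitemia final) for 96 hours, 37 C in 5% CO2. Growth inhibition scored as decreased luciferase luminescence.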
# % is set by controls: 0 for no effect and ±100 for the full control effect; potency is the fitted concentration of half-maximal effect.
Structure (SMILES),"activity change, negative = inhibition",Potency
Cc1ccc(CSCCNC(=O)CN(c2ccc(F)cc2)S(C)(=O)=O)cc1,inactive: 72.4%,
Cc1ccccc1-c1cc(C(=O)NCc2cccc(C(F)(F)F)c2)nn1CC1CC(c2cccc([N+](=O)[O-])c2)=NO1 (stereo unspecified),,active: 6.57 µM
COC(=O)c1cc(S(=O)(=O)NCc2cccc(OC)c2)cn1C,inactive: -23.1%,
Cc1ccccc1OCC(O)CN1CCN(CC(O)COc2ccccc2C)CC1 (stereo unspecified),,active: 1.47 µM
Cn1c(SCC2CCCO2)nnc1-c1ccc([N+](=O)[O-])cc1 (stereo unspecified),,"inconclusive: 11.7 µM [inhibitor, single point]"
CC1CCN(c2ccc(C(=O)O)cc2NS(=O)(=O)c2ccc(Br)cc2)CC1,inactive: 10.2%,
CCc1cc2c(=O)n(Cc3ccco3)c(SCC(=O)N(C)C3CCS(=O)(=O)C3)nc2s1 (stereo unspecified),,"inconclusive: 10.4 µM [inhibitor, single point]"
CCCCCCn1cnc2c(c1=O)c1nc3ccccc3nc1n2Cc1cccs1,inactive: 36.9%,
O=C(c1ccc(Cl)c(S(=O)(=O)N2CCCC2)c1)N1CCN(c2ncccn2)CC1,,"inconclusive: 11.7 µM [inhibitor, partial curve]"
CC(Oc1ccc(Cl)cc1Cl)C(=O)Nc1ccc(OCC(=O)O)cc1 (stereo unspecified),inactive: 2.98%,
Cc1nnc2n1N=CC=C(c1ccccc1)S2,,"inconclusive: 4.15 µM [inhibitor, partial curve]"
Cc1ccc(NC(=O)c2cc([N+](=O)[O-])ccc2NCc2cccnc2)cc1Cl,,active: 2.08 µM
NC(N)=N/N=C/c1ccc(N(c2ccccc2)c2ccccc2)cc1,,active: 2.08 µM
O=C(Nc1ccc(F)cc1)N1CCCN(c2nccc(C(F)(F)F)n2)CC1,,"inconclusive: 18.5 µM [inhibitor, single point]"
Nc1cc(Cl)nc(N/N=C/c2ccccc2[N+](=O)[O-])n1,,active: 6.57 µM
COc1cc(NC(=O)CSc2nnc3ccc(-c4ccncc4)nn23)cc(OC)c1,,"inconclusive: 5.22 µM [inhibitor, partial curve, poor fit]"
NC(=O)COc1ccccc1/C=C1/SC(=O)N(CC(=O)N2CCc3ccccc3C2)C1=O,,"inconclusive: 18.5 µM [inhibitor, single point]"
CCOC(=O)[C@H]1[C@H]2COc3ccc(Br)cc3[C@H]2N2C(=O)CNC(=O)[C@@]12C,,"inconclusive: 5.22 µM [inhibitor, single point]"
O=C(CCCCCN1C(=O)c2ccccc2C1=O)NCCc1nc2ccccc2[nH]1,,"inconclusive: 16.5 µM [inhibitor, single point]"
CN(C)S(=O)(=O)c1ccc(N2CCCC2)c(C(=O)OCC(=O)N2CCN(c3ccccc3)CC2)c1,inactive: 13.5%,
CCOc1ccccc1N1CCN(C(=O)c2csc(C)c2CC)CC1,inactive: 11.2%,
O=c1cc(CSc2nc(NCc3ccccc3)c3ccccc3n2)nc2ccc(Cl)cn12,,"inconclusive: 1.47 µM [inhibitor, full curve]"
O=C(CN1c2ccccc2Sc2ccccc21)N/N=C/c1ccc(Cl)cc1Cl,,"inconclusive: 18.5 µM [inhibitor, single point]"
CC1CCCCN1CCNc1nc(=S)[nH]c2ccccc12 (stereo unspecified),,active: 2.33 µM

# Part of the list above in order of heavy-atom count, smallest number first.
Structure (SMILES),"activity change, negative = inhibition",Potency
Nc1cc(Cl)nc(N/N=C/c2ccccc2[N+](=O)[O-])n1,,active: 6.57 µM
CCOC(=O)[C@H]1[C@H]2COc3ccc(Br)cc3[C@H]2N2C(=O)CNC(=O)[C@@]12C,,"inconclusive: 5.22 µM [inhibitor, single point]"
CCCCCCn1cnc2c(c1=O)c1nc3ccccc3nc1n2Cc1cccs1,inactive: 36.9%,

# Next part:

Structure (SMILES),"activity change, negative = inhibition",Potency
CC(=O)c1cccc(OCc2cc(C(=O)N(C)C(C)c3ccccn3)no2)c1 (stereo unspecified),inactive: 44.5%,
CCS(=O)(=O)C1=NN2C(=N)/C(=C\c3ccc(OS(=O)(=O)c4ccccc4)cc3)C(=O)N=C2S1,,"inconclusive: 16.5 µM [inhibitor, partial curve, poor fit]"
O=C1C=C(O)c2cccc(O)c2C1=O,,"inconclusive: 18.5 µM [inhibitor, single point]"
Cc1cc(NC(=O)C2C3C(=O)N(Cc4ccc(Cl)cc4)C(C(=O)NC4CCCCC4)C34C=CC2(C)O4)no1 (stereo unspecified),,"inconclusive: 1.31 µM [inhibitor, partial curve, poor fit]"
C=C(c1ccccc1Cl)[n+]1ccccc1,,active: 1.65 µM
COc1ccc(OCC(O)CN(C)C(=O)/C=C/c2cccc([N+](=O)[O-])c2)cc1 (stereo unspecified),,"inconclusive: 1.17 µM [inhibitor, partial curve, poor fit]"
COc1ccc(O)c(C(=O)c2cc(C#N)c(=O)n(-c3ccc(Cl)cc3)c2)c1,,active: 5.86 µM
O=C(CSc1nc(O)cc(=O)n1-c1ccccc1)Nc1ccc(Br)cn1,inactive: 34.7%,
C=CCN1C=CC=C/C1=C1\SC(=S)N(C)C1=O,,"inconclusive: 13.1 µM [inhibitor, single point]"
O=C(NCC1CCN(c2ccc(S(=O)(=O)N3CCOCC3)cc2)CC1)c1cccc(Cl)c1,,active: 11.7 µM
O=C(CC(C(=O)O)c1ccc(Cl)cc1)c1ccc(Cl)c(Cl)c1 (stereo unspecified),inactive: 29.8%,
CNC(=O)COc1coc(CN2CCN(c3ccc(F)cc3)CC2)cc1=O,,"inconclusive: 16.5 µM [inhibitor, single point]"
Cc1c(/C=N/NC(=O)c2sc3ccccc3c2Cl)cnn1C,inactive: 76%,
COc1cc(NC(=O)CCCC(=O)OCC(F)(F)C(F)F)nc(OC)n1,inactive: 10.8%,
Cc1cc(C)c(S(=O)(=O)N2CCN(C(=O)N3CCCCC3)CC2)c(C)c1,,"inconclusive: 18.5 µM [inhibitor, single point]"
CC1CC(C)(C)NCc2ccccc21 (stereo unspecified),,active: 9.28 µM
CCOC(=O)/C(C#N)=C\c1c(OCC)n(CC)c2ccccc12,,active: 11.7 µM
CCn1c(SCC(=O)N2CCCc3ccccc32)nc2c(c1=O)SC(C)C2 (stereo unspecified),,"inconclusive: 11.7 µM [inhibitor, single point]"
CCOC(=O)CNC(=O)c1c(C)nn(-c2ccccc2)c1Cl,inactive: 4.2%,
COc1cc2c(cc1OC)C(c1ccccc1C)CC(=O)N2 (stereo unspecified),,"inconclusive: 16.5 µM [inhibitor, single point]"
Cc1cccc(C(=O)Nc2nnc(Cc3ccccc3)s2)c1,,active: 10.4 µM
Cc1ccc2oc(=O)c3cnn(CC(=O)NC4CCC(C)CC4)c3c2c1 (stereo unspecified),,"inconclusive: 0.0029 µM [inhibitor, full curve, poor fit]"
COc1ccc(OC)c(CC(=O)N(C)C2CCCN(Cc3ccccc3F)C2)c1 (stereo unspecified),,"inconclusive: 10.4 µM [inhibitor, single point]"
Cn1nc(C(C)(C)C)c(NC(=O)c2sccc2Cl)c1C(C)(C)C,,"inconclusive: 1.85 µM [inhibitor, full curve, poor fit]"

# An excerpt of these results, tab-delimited:
Structure (SMILES)	activity change, negative = inhibition	Potency
CCOc1ccccc1N1CCN(C(=O)c2csc(C)c2CC)CC1	inactive: 11.2%	
O=c1cc(CSc2nc(NCc3ccccc3)c3ccccc3n2)nc2ccc(Cl)cn12		inconclusive: 1.47 µM [inhibitor, full curve]

# The results go on:

Structure (SMILES),"activity change, negative = inhibition",Potency
CCN(CC(=O)NCCCN1CCOCC1)S(=O)(=O)c1cc(Cl)ccc1Cl,,"inconclusive: 16.5 µM [inhibitor, partial curve, poor fit]"
Cc1cc(C)nc(NS(=O)(=O)c2ccc(NC(=O)c3ccc(S(=O)(=O)N4CC(C)OC(C)C4)cc3)cc2)n1 (stereo unspecified),,"inconclusive: 18.5 µM [inhibitor, single point]"
Cn1nc(C(F)(F)F)c(C(=O)Nc2ccc(F)cc2F)c1Oc1cccc(Cl)c1,,"inconclusive: 0.0033 µM [inhibitor, full curve, poor fit]"
O=C(CCC1CCCCC1)Nc1cc(C(F)(F)F)ccc1N1CCOCC1,,active: 13.1 µM
CC1CCCC(C)N1C(=O)CN1C(=O)C(C)(C)Oc2ccc(C(=O)NC3CCCC3)cc21 (stereo unspecified),inactive: 4.65% [at 5.75 µM],
CC(C)c1ccc(CSc2ccc(S(=O)(=O)N3CCOCC3)cn2)cc1,,"inconclusive: 11.7 µM [inhibitor, single point]"
CC(C)[C@H](N)c1nnc(SCc2ccc(Cl)cc2)o1,,"inconclusive: 1.17 µM [inhibitor, partial curve]"
Cc1ccn2c(=O)c(C(=O)NCCCN3CCCCC3C)c(O)nc2c1 (stereo unspecified),,"inconclusive: 1.47 µM [inhibitor, partial curve, poor fit]"
CCOC(=O)N1CCC(NC(=O)C2CCCN(C(=O)c3cc4sccc4n3C)C2)CC1 (stereo unspecified),,"inconclusive: 11.7 µM [inhibitor, single point]"
CCc1ccc(NC(=O)N2CCN(c3ccc(F)cc3)CC2)cc1,inactive: 102%,
CN(Cc1ccccc1)C(=O)CCC1CCN(C(=O)CCC(F)(F)F)CC1,inactive: 1.15%,
Cc1cc(C)nc(SCc2ccc(C(=O)NN=C3CCCC3)cc2)n1,,"inconclusive: 5.22 µM [inhibitor, partial curve, poor fit]"
Cc1ccc(C)n1-c1nn(S(=O)(=O)c2cccc(C(F)(F)F)c2)c2cccc(F)c12,,"inconclusive: 14.7 µM [inhibitor, single point]"
COc1ccccc1CCC(=O)Nc1ncc(C)s1,inactive: 42.5%,
COc1ccc(O)c(/C=N/NC(=O)c2cccc(N3CCCC3=O)c2)c1,inactive: 33.2%,
Cc1nn(-c2ccccc2)c(C)c1NC(=O)COc1ccc(Br)cc1Cl,,"inconclusive: 8.28 µM [inhibitor, partial curve, poor fit]"
Nc1ccc(S(=O)(=O)Nc2ccc(Cl)nn2)cc1,,"inconclusive: 18.5 µM [inhibitor, single point]"
COCCn1c(C)cc(C(=O)CSc2nnc3ccccn23)c1C,inactive: 17.4%,
COc1ccccc1C(=O)C1CCCN(C(=O)c2ccc(C(C)=O)s2)C1 (stereo unspecified),,"inconclusive: 14.7 µM [inhibitor, partial curve, poor fit]"
CCc1noc(C)c1C(=O)N1CCN(S(=O)(=O)c2c(C)cc(C)cc2C)CC1,,"inconclusive: 2.94 µM [inhibitor, partial curve, poor fit]"
CCOc1ccccc1NC(=O)COC(=O)c1cccc(-c2ccc(OC(C)=O)cc2)c1,,active: 9.28 µM
COc1ccc(CCN2CC(C(=O)NCc3cc(C(C)C)no3)CCC2=O)cc1 (stereo unspecified),,"inconclusive: 18.5 µM [inhibitor, single point]"
CN1CCSc2ccc(C(=O)NCc3cccc(F)c3)cc21,,active: 9.28 µM
